In patent publication US20230016983A1:
Results are given in words; binding and its absence hold for the method and conditions named. Binding seen in cells or lysates may run through a third protein. Some entries that bind do so weakly or less than the wild type.

Amino acid sequences for entries named in this document (tags omitted).
UniProt P04792: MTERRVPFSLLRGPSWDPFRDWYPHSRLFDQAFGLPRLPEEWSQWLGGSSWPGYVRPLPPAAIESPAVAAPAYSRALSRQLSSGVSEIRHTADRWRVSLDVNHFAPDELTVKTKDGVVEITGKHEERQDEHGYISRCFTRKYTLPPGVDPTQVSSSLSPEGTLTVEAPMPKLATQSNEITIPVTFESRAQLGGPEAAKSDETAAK
UniProt P17844: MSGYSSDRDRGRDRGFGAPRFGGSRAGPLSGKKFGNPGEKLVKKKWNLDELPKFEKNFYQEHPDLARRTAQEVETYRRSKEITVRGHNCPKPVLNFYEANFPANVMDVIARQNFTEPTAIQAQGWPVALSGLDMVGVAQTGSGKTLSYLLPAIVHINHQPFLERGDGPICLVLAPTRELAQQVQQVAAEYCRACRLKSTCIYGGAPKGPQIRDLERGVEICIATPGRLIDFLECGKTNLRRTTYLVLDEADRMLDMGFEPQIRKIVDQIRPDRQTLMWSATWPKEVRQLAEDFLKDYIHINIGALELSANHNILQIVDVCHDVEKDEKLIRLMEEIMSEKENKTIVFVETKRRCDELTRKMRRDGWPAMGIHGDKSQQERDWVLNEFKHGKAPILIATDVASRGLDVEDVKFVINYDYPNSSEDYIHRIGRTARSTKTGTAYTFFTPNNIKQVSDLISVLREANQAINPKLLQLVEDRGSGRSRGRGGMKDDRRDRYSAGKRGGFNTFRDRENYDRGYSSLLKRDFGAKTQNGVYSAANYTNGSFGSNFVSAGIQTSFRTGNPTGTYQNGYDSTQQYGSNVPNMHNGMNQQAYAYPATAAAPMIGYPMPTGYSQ

Molecular target: Heat Shock Protein Hsp27 (human) (UniProt P04792)
Test: co-immunoprecipitation and Western blot, PC-3 cell lysate; also IP/MS of the Hsp27 interactome

## Probable ATP-dependent RNA helicase DDX5 (from UniProt P17844 1-614) (enzyme)
  binding: binds
